Test results reported in PubChem BioAssay AID493014 (National Center for Advancing Translational Sciences (NCATS), 2011).
Some of the results follow. The main result of the screen is listed elsewhere. These columns were measured beside it and carry no call. Compounds called inactive in the main read-out are mostly missing here. The note in brackets gives the kind of curve behind each potency; many fits are weak.

Experiment: qHTS Assay to Find Inhibitors of Chronic Active B-Cell Receptor Signaling
Settings: ABC-DLBCL IkBa-CBG/CBR reporter, luminescence ratio (green luciferase fused to IkBa over red control in TMD8 lymphoma cells), 4 h
Summary of the method: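 Concentration-response series (up to 46 uM) were applied to TMD8 dual-reporter cells for 4 h at 37C with doxycycline. Green/red ratio, after filter-overlap correction, defined %Activity; red signal alone was normalised to basal cells and zero luminescence.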

[1] = measured here: CBR red luminescence, cell number
[2] = measured here: IkBa-CBG green luminescence

SMILES | AC50 [1] | AC50 [2]
CC(=O)C1=C(c2ccccc2)NC(=O)NC1c1cccs1 (centres undefined) | 15.8 µM [falling, partial curve, poor fit] | 35.5 µM [rising, partial curve, poor fit]
CS(=O)(=O)c1ccc2nc(NC(=O)c3ccc(Cl)nc3)sc2c1 | 14.1 µM [falling, single point] | –
Cc1cccc(NC(=S)NNC(=O)c2sccc2C)c1 | 20.6 µM [falling, partial curve] | –
CCOC(=O)c1cc2c(=O)n3ccccc3nc2n(Cc2ccco2)c1=NC(=O)c1cccc(OC)c1 | 35.5 µM [falling, single point] | –
N#Cc1ccccc1S(=O)(=O)N1CCNS(=O)(=O)c2ccccc21 | 23.1 µM [rising, partial curve, poor fit] | –
CCN1c2ccccc2-c2nc3ccccc3n2C1c1cccs1 (centres undefined) | 16.4 µM [falling, single point] | –
COc1cc2ccccc2cc1C(=O)Nc1ccc(Cc2ccncc2)cc1 | 2.59 µM [falling, partial curve] | –
c1ccc(Nc2nn[nH]n2)cc1 | 12.6 µM [rising, partial curve, poor fit] | –
O=[N+]([O-])c1cccnc1SCc1ccccc1 | 10 µM [rising, partial curve, poor fit] | –
CC(C)c1ccc(NC(=O)COc2nnc(-c3cccs3)c(-c3cccs3)n2)cc1 | 6.51 µM [falling, single point] | –
Cc1cccc(C(=O)NCCc2ccccc2)c1 | 8.91 µM [falling, partial curve] | –
CCN(CC)C(=O)c1sc(NC(=O)c2c(OC)cccc2OC)c(C#N)c1C | 14.1 µM [rising, partial curve, poor fit] | –
COc1ccc(C2=NN(CC(=O)NCCc3ccc(OC)c(OC)c3)C(=O)CC2)cc1 | 2.51 µM [rising, partial curve, poor fit] | –
O=c1c(-c2ccco2)[n+]([O-])c2ccccc2n1OCc1c(F)cccc1F | 20 µM [falling, partial curve, poor fit] | –
O=c1cc(-c2ccccc2Cl)oc2c([N+](=O)[O-])c(O)cc(O)c12 | 7.31 µM [falling, partial curve] | 5.8 µM [rising, full curve, poor fit]
Cc1ccccc1-c1nnc(SCc2ccccc2)o1 | 0.184 µM [rising, full curve, poor fit] | –
COc1ccc(Br)cc1CN(C)C(C)C(=O)Nc1cccc(C(C)=O)c1 (centres undefined) | 6.31 µM [rising, partial curve, poor fit] | –

Three structures out of the list, arranged by count of non-hydrogen atoms, smallest number first:
SMILES | AC50 [1] | AC50 [2]
O=c1cc(-c2ccccc2Cl)oc2c([N+](=O)[O-])c(O)cc(O)c12 | 7.31 µM [falling, partial curve] | 5.8 µM [rising, full curve, poor fit]
COc1ccc(Br)cc1CN(C)C(C)C(=O)Nc1cccc(C(C)=O)c1 (centres undefined) | 6.31 µM [rising, partial curve, poor fit] | –
O=c1c(-c2ccco2)[n+]([O-])c2ccccc2n1OCc1c(F)cccc1F | 20 µM [falling, partial curve, poor fit] | –
